The list shows a part of the results. Single values are uncertain, as repeats are few or missing.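 Imaging used 1,536-well plates; nuclei positive for cleaved PARP by antibody were divided by total DNA-stained nuclei to yield the apoptosis fraction. Doses for screening kept most cells viable, and cell lines differ markedly in resting and induced cleaved-PARP levels.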

The experiment has as its system COLO829. Kind of experiment: cleaved PARP positive nuclei fraction relative to DMSO control; melanoma cells; higher = more apoptosis. Particulars: library dose: low library concentration; 72 h.
Take `Cc1cc(Nc2cc(N3CCN(C)CC3)nc(/C=C/c3ccccc3)n2)n[nH]1` + NC(=O)Nc1cc(-c2cccc(F)c2)sc1C(=O)N[C@H]1CCCNC1 [AZD7762] (first compound 0.04 µM, partner dose 0.02 µM): the “cleaved PARP positive nuclei fraction” value came out at 118%.
As for `Nc1nc(F)nc2c1ncn2[C@@H]1O[C@H](CO)[C@@H](O)[C@@H]1O` [fludarabine] + O=C(Nc1cccc(Cl)c1)Nc1ncc(CCNc2ncnc3ccsc23)s1 [SNS314] (first compound 0.2 µM, partner dose 0.0008 µM), the “cleaved PARP positive nuclei fraction” value is 76.1%.
With `CS(=O)(=O)CCNCc1ccc(-c2ccc3ncnc(Nc4ccc(OCc5cccc(F)c5)c(Cl)c4)c3c2)o1` [lapatinib] + CN(NC(=O)CC(=O)NN(C)C(=S)c1ccccc1)C(=S)c1ccccc1 [STA4783] (first compound 0.8 µM, partner dose 0.006 µM) the figure was 766%.
Take `CC(C)C[C@H](NC(=O)[C@H](Cc1ccccc1)NC(=O)c1cnccn1)B(O)O` [Bortezomib] + CO[C@@H]1[C@H](N(C)C(=O)c2ccccc2)C[C@H]2O[C@]1(C)n1c3ccccc3c3c4c(c5c6ccccc6n2c5c31)C(=O)NC4 [Midostaurin] (first compound 0.001 µM, partner dose 0.08 µM): the “cleaved PARP positive nuclei fraction” value stood at 380%.
The figure for `C[C@@H](Oc1cc(-c2cnn(C3CCNCC3)c2)cnc1N)c1c(Cl)ccc(F)c1Cl` [Crizotinib] + O=C(O)c1ccc(-c2c[nH]c3ncc(-c4ccccc4)cc23)cc1C1CCCC1 [GSK650394] (first compound 0.2 µM, partner dose 0.16 µM) is 65.6%.
For the compound `CS(=O)(=O)CCNCc1ccc(-c2ccc3ncnc(Nc4ccc(OCc5cccc(F)c5)c(Cl)c4)c3c2)o1` [lapatinib] + NC(=O)Nc1cc(-c2cccc(F)c2)sc1C(=O)N[C@H]1CCCNC1 [AZD7762] (first compound 0.8 µM, partner dose 0.02 µM), the “cleaved PARP positive nuclei fraction” value was determined as 87.2%.
Turning to `CNC(=O)c1cc(Oc2ccc(NC(=O)Nc3ccc(Cl)c(C(F)(F)F)c3)cc2)ccn1` [sorafenib] + NC(=O)Nc1cc(-c2cccc(F)c2)sc1C(=O)N[C@H]1CCCNC1 [AZD7762] (first compound 0.4 µM, partner dose 0.02 µM), the “cleaved PARP positive nuclei fraction” value came out at 224%.
With `CN1CCN(c2ccc3nc(-c4c(N)c5c(F)cccc5[nH]c4=O)[nH]c3c2)CC1` [Dovitinib] + NCC(=O)Nc1ccc(-n2nc(C(F)(F)F)cc2-c2ccc3c(ccc4ccccc43)c2)cc1 [OSU03012] (first compound 0.1 µM, partner dose 1 µM) the figure was 179%.
On to `C=C(c1ccc(C(=O)O)cc1)c1cc2c(cc1C)C(C)(C)CCC2(C)C` [Bexarotene] + NC(=O)Nc1cc(-c2cccc(F)c2)sc1C(=O)N[C@H]1CCCNC1 [AZD7762] (first compound 2 µM, partner dose 0.02 µM), for which the “cleaved PARP positive nuclei fraction” value turned out to be 68.5%.
With `Cn1c(=O)n(-c2ccc(C(C)(C)C#N)cc2)c2c3cc(-c4cnc5ccccc5c4)ccc3ncc21` + Cn1cncc1[C@@](N)(c1ccc(Cl)cc1)c1ccc2c(c1)c(-c1cccc(Cl)c1)cc(=O)n2C [tipifarnib] (first compound 0.004 µM, partner dose 0.01 µM) the figure was 26.7%; with `C[C@@H](Oc1cc(-c2cnn(C3CCNCC3)c2)cnc1N)c1c(Cl)ccc(F)c1Cl` [Crizotinib] + CN(NC(=O)CC(=O)NN(C)C(=S)c1ccccc1)C(=S)c1ccccc1 [STA4783] (first compound 0.2 µM, partner dose 0.006 µM), 190%.
`CC(C)C[C@H](NC(=O)[C@H](Cc1ccccc1)NC(=O)c1cnccn1)B(O)O` [Bortezomib] + COc1cc2c(Oc3ccc4[nH]c(C)cc4c3F)ncnc2cc1OCCCN1CCCC1 [cediranib] (first compound 0.001 µM, partner dose 0.4 µM): the “cleaved PARP positive nuclei fraction” value is 131%.
With `Cc1cc(Nc2cc(N3CCN(C)CC3)nc(/C=C/c3ccccc3)n2)n[nH]1` + Cc1cc(N2CCOCC2)cc2[nH]c(-c3c(NC[C@@H](O)c4cccc(Cl)c4)cc[nH]c3=O)nc12 [BMS536924] (first compound 0.04 µM, partner dose 0.2 µM) the figure was 71.8%.
Regarding `C[C@@H](Oc1cc(-c2cnn(C3CCNCC3)c2)cnc1N)c1c(Cl)ccc(F)c1Cl` [Crizotinib] + CC1(C)NC(=O)N(c2ccc([N+](=O)[O-])c(C(F)(F)F)c2)C1=O [nilutamide] (first compound 0.2 µM, partner dose 1 µM), the “cleaved PARP positive nuclei fraction” value was determined as 98%.
Regarding `Cn1c(=O)n(-c2ccc(C(C)(C)C#N)cc2)c2c3cc(-c4cnc5ccccc5c4)ccc3ncc21` + NC(=O)Nc1cc(-c2cccc(F)c2)sc1C(=O)N[C@H]1CCCNC1 [AZD7762] (first compound 0.004 µM, partner dose 0.02 µM), the “cleaved PARP positive nuclei fraction” value worked out at 88%.
With `CC(C)C[C@H](NC(=O)[C@H](Cc1ccccc1)NC(=O)c1cnccn1)B(O)O` [Bortezomib] + O=C(O)c1ccc(-c2c[nH]c3ncc(-c4ccccc4)cc23)cc1C1CCCC1 [GSK650394] (first compound 0.001 µM, partner dose 0.16 µM) the figure was 264%; with `C[C@@H](Oc1cc(-c2cnn(C3CCNCC3)c2)cnc1N)c1c(Cl)ccc(F)c1Cl` [Crizotinib] + C[C@@H]1CCN(C(=O)CC#N)C[C@@H]1N(C)c1ncnc2[nH]ccc12 [CP690550] (first compound 0.2 µM, partner dose 1 µM), 52.2%.
With `CC(C)C[C@H](NC(=O)[C@H](Cc1ccccc1)NC(=O)c1cnccn1)B(O)O` [Bortezomib] + Cc1cc(N2CCOCC2)cc2[nH]c(-c3c(NC[C@@H](O)c4cccc(Cl)c4)cc[nH]c3=O)nc12 [BMS536924] (first compound 0.001 µM, partner dose 0.2 µM) the figure was 79%; with `Nc1ccn([C@@H]2O[C@H](CO)[C@@H](O)C2(F)F)c(=O)n1` [gemcitabine] + CC(C)(C)c1cnc(CSc2cnc(NC(=O)C3CCNCC3)s2)o1 [SNS-032] (first compound 0.0004 µM, partner dose 0.01 µM), 157%.
For `CCCS(=O)(=O)Nc1ccc(F)c(C(=O)c2c[nH]c3ncc(Cl)cc23)c1F` + C=CCn1c(=O)c2cnc(Nc3ccc(N4CCN(C)CC4)cc3)nc2n1-c1cccc(C(C)(C)O)n1 [MK1775] (first compound 0.08 µM, partner dose 0.02 µM), the “cleaved PARP positive nuclei fraction” value was 36.9%.
As for `Nc1ccn([C@@H]2O[C@H](CO)[C@@H](O)C2(F)F)c(=O)n1` [gemcitabine] + CC1(C)NC(=O)N(c2ccc([N+](=O)[O-])c(C(F)(F)F)c2)C1=O [nilutamide] (first compound 0.0004 µM, partner dose 1 µM), the “cleaved PARP positive nuclei fraction” value was determined as 140%.
The figure for `CC(C)C[C@H](NC(=O)[C@H](Cc1ccccc1)NC(=O)c1cnccn1)B(O)O` [Bortezomib] + Cc1ccc(NC(=O)c2cccc(N(C)C)c2)cc1NC(=O)c1ccc(O)cc1 [ZM336372] (first compound 0.001 µM, partner dose 2 µM) is 160%.
With `CCCS(=O)(=O)Nc1ccc(F)c(C(=O)c2c[nH]c3ncc(Cl)cc23)c1F` + CN(NC(=O)CC(=O)NN(C)C(=S)c1ccccc1)C(=S)c1ccccc1 [STA4783] (first compound 0.08 µM, partner dose 0.006 µM) the figure was 180%; with `O=C(O)[C@@H]1[O][Sb](=[O])([O][Sb]2(=[O])[O][C@H]([C@H](O)CO)[C@H](O)[C@H](C(=O)O)[O]2)[O][C@H]([C@H](O)CO)[C@@H]1O` (stereo partly specified) [stibogluconate] + C[C@@H]1CCN(C(=O)CC#N)C[C@@H]1N(C)c1ncnc2[nH]ccc12 [CP690550] (first compound 2 µM, partner dose 1 µM), 61.6%; with `C=C(c1ccc(C(=O)O)cc1)c1cc2c(cc1C)C(C)(C)CCC2(C)C` [Bexarotene] + Cc1ccc(NC(=O)c2cccc(N(C)C)c2)cc1NC(=O)c1ccc(O)cc1 [ZM336372] (first compound 2 µM, partner dose 2 µM), 134%.
Regarding `Cc1cc(Nc2cc(N3CCN(C)CC3)nc(/C=C/c3ccccc3)n2)n[nH]1` + CO[C@@H]1[C@H](N(C)C(=O)c2ccccc2)C[C@H]2O[C@]1(C)n1c3ccccc3c3c4c(c5c6ccccc6n2c5c31)C(=O)NC4 [Midostaurin] (first compound 0.04 µM, partner dose 0.08 µM), the “cleaved PARP positive nuclei fraction” value turned out to be 64.3%.

These data come from the supplement of paper PMC4604168 (melanoma cell lines).
